Measurements published in US20050169909A1.
These are yes or no findings as the source states them, for the method shown. Binding calls can cover weak binding; strength is not graded here.

Molecular target: human IgE Fc peptide that carried mutations in epitope 'A' (human)
Test: Western blot of in vitro translated V5-tagged IgE Fc peptides (Example 12 B) [panel anti-IgE 5I]

- binding: binds
B1: Anti-IgE CL-5I (antibody, V domains shown)
VH: QVQLVQSGAEVMKPGSSVKVSCKASGYTFSMYWLEWVRQAPGHGLEWMGEIDPGTFETNYNEKFKARVTFTADTSTSTAYMELSSLRSEDTAVYYCARFSHFSGSNYDYFDYWGQGTLVTVSS
VL: EIVMTQSPATLSVSPGERATLSCRASQSIGTNIHWYQQKPGQAPRLLIYYASESISGIPARFSGSGSGTEFTLTISSLQSEDFAVYYCQQSWSWPTTFGGGTKVEIKT
